From article doi:10.1101/2022.03.01.482527
These are yes or no findings as the source states them, for the method shown. Binding seen in cells or lysates may run through a third protein. Some entries that bind do so weakly or less than the wild type.

Sequences of proteins named here, by UniProt entry; tags and fusion partners are left off. A change or cut given only in a name is not applied to a line headed by its entry.
UniProt P62745, whole entry: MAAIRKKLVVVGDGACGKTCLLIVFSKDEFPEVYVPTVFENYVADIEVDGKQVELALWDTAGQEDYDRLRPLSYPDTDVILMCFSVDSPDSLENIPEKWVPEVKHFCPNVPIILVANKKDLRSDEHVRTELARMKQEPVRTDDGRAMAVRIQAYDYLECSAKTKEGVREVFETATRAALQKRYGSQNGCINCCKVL

Columns and labels:
Assay in all cases: co-IP
GFP-RhoB T19N = GFP-RhoB T19N (UniProt P62745)
GFP-RhoB Q63L = GFP-RhoB Q63L (UniProt P62745)
GFP-RhoB wild type = GFP-RhoB wild type (UniProt P62745)

Measured: binding

HA-Solo (wild type) (from UniProt Q8TER5 1-1519)
binds: all assays above
